# Library screening results

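Viability assay of Plasmodium falciparum sporozoites; the read-out is not stated. The concentration is filed as 10 mM, unlikely as a test dose, so the dose is not known. Higher reads as lower viability (inferred: compounds with an IC50 in retests scored well above the rest). Strong results were mostly tested again. Of about 34,000 compounds tested this way, about 280 (0.84%) reached 50% or more in at least one test.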

The filed quantity is “Percent Effect” (%). The record does not define 0% and 100%; most values in the screen are far below 50% and negative numbers occur (in some assays of this library far below -100). This is an unselected part of the compounds tested. Two or more numbers in one place are separate tests of the same structure; such repeats can differ widely.

* Cn1ccc(C(=O)NCC2(O)CCN(c3cnccn3)C2)n1 (stereo not drawn) | 1.036%
* CCc1c(C(=O)N2CCC3(CC(=O)NC3=O)C2)csc1C (stereo not drawn) | -7.561%
* CCN1CCCC1Cn1ccc2c(OC)c(OC)ccc2c1=O (stereo not drawn) | 2.485%
* O=C(O)C(F)(F)F.[H][C@]12CCC(=O)N(c3ccccc3)[C@@]1([H])CCN2c1ncc(C)cn1 | 7.706%
* CNc1cc2c(nn1)CCN(C(=O)c1cc(F)cc(F)c1)C2 | -5.087%
* Cc1nc(C)c(C(=O)N2CCCC2(C)C(=O)NC2CCCC2)s1 (stereo not drawn) | -4.668%
* Cn1cc(N2CC3(CCN(CC4CCOCC4)CC3)OCC2=O)cn1.O=C(O)C(F)(F)F | 4.825%
* CN(C)[C@@H]1CN(Cc2ccccc2O)C[C@H]1c1cn(C)c2ccccc12.Cl | 9.388%
* Cc1nc(C)n(CCNC(=O)C2(C)CC(c3ccccc3)=NO2)n1 (stereo not drawn) | 4.714%
* Cc1cc(C)c(CNC(=O)NCc2nnc3n2CCCC3)c(=O)[nH]1 | -3.885%
* Cc1ccc(C(=O)N2CC[C@H](Oc3cccnc3C)[C@@H](O)CC2)s1 | -0.5021%
* O=C(O)C(F)(F)F.[H][C@]12CCC(=O)N(c3ccccc3)[C@@]1([H])CCN2C(=O)c1ccc(C)nc1 | -3.733%
* Cc1cnn(CCNCC(O)COc2c(Cl)cccc2Cl)c1 (stereo not drawn) | 5.554%
* O=C(CN1CCC(c2ccnn2CCO)CC1)NCc1cccs1 | -4.852%
* O=C(Nc1nccs1)NC1CCN(Cc2ccccn2)CC1 | 14.3%
* Cc1nn(CC(=O)N2CCC3(CN(C)C(=O)O3)C2)c(=O)c2ccccc12 (stereo not drawn) | 5.586%
* CC1c2ncc(COc3cccnc3)n2CCN1C(=O)C1=CCCC1.O=C(O)C(F)(F)F (stereo not drawn) | -10.09%
* CCn1c2c(ccc1=O)CC(NCc1cnn(C)c1)CC2 (stereo not drawn) | 6.92%
* Cc1cnn(C2CCCN(C(=O)c3ccc(Cn4ccnc4)cc3)C2)c1 (stereo not drawn) | 12.09%
* CC(C)Oc1cccc(C(=O)C2CCCN(C(=O)c3ccoc3)C2)c1 (stereo not drawn) | -5.005%
* CN(C)Cc1cc(C2CCCCN2S(=O)(=O)c2cccc(Cl)c2)nn1C.Cl (stereo not drawn) | 3.622%
* O=C(O)C(F)(F)F.[H][C@@]12CCCO[C@]1([H])[C@H](OC)CN2S(=O)(=O)c1cn(C)cn1 | -4.44%
* CNC(=O)NCC1CCC2(CCN(C(=O)c3cccnc3)CC2)CO1.O=C(O)C(F)(F)F (stereo not drawn) | -4.943%
* CCOCCn1nc(C)cc1C(=O)N1CCC2(CC1)[C@H](O)C[C@@H]2OCC | 11.32%
* Cc1cnn(CC2CCCCN2C(=O)c2nccnc2N)c1 (stereo not drawn) | 2.347%
* Cc1noc(C2(C)CCCN(C(=O)C(C)C)C2)n1 (stereo not drawn) | 0.8312%
* CN(C)CCN1CCC2(CCCN(Cc3cccn3C)C2)C1=O.O=C(O)C(F)(F)F.O=C(O)C(F)(F)F (stereo not drawn) | -8.767%
* [H][C@@]12OCCC[C@]1([H])N(C(=O)c1cccc(C)n1)C[C@@H]2NS(C)(=O)=O | -21.05%
* CCNC(=O)C1CCN(Cn2nc(-c3ccc(F)cc3)oc2=O)CC1 | 7.612%
* Cc1cc(C(N)=O)ccc1NC(=O)c1nc(N2CCCCC2)ncc1Cl | -5.799%
* COc1ccc2c(ccn2CCC(=O)O)c1 | 18.86%
* CC1CCc2nn(CCNC(=O)Cc3ccccc3F)c(=O)cc2C1 (stereo not drawn) | -25.04% & -6.135% & -21.75%
* O=C(O)C(F)(F)F.[H][C@@]12CCN(Cc3scnc3C)C[C@]1(c1nc(C)no1)CCO2 | -0.8439%
* COCCNC(=O)c1cccnc1Oc1ccc(Cl)cc1 | -13.35%
* Cn1c(C(F)(F)F)nn(CCNC(=O)NCc2ccccc2)c1=O | 3.896%
* CCCN(C)C(=O)c1ccc2c(c1)[nH]c(=O)n2CCOCC | -12.12%
* C/N=C1\c2cc3cc(OC)ccc3n2CCN1Cc1ccccc1.O=C(O)C(F)(F)F | 13.71%
* CC(=O)N1CCC(Cc2cncc(-c3c(C)n[nH]c3C)n2)C1 (stereo not drawn) | 8.271%
* Cc1ccc(OCCN(C)Cc2nc3c(cnn3C)c(=O)[nH]2)cc1 | 6.181%
* COc1ccc(CNCc2c(C)nn(C)c2N2CCOCC2)cc1 | -16.18% & -2.312% & -16.24%
* CCc1nc2n(n1)CC(NCc1cnc(-c3ccccc3)nc1)CC2 (stereo not drawn) | 11.84%
* CNC(=O)c1ccc(C2CCCN(C(=O)c3c(C)noc3C)C2)nc1 (stereo not drawn) | 13.08%
* [H][C@@]12CC(=O)N(c3cnn(C)c3)[C@@]1([H])CCN2C(=O)c1ccco1 | -1.107%
* CCc1n[nH]c(NC(=O)c2ccc(Cl)cn2)c1Br | 4.563%
* Cc1nc(C)n(C2CCCN(C(=O)c3ccc(O)nc3)C2)n1 (stereo not drawn) | -7.775%
* CCN(CC)CC(=O)N1CCN(c2nc(C)cc(OC)n2)CC1 | 6.007%
* O=C(c1cccs1)N1CCc2ncc(Cn3cncn3)n2CC1 | 1.289%
* O=C(O)C(F)(F)F.[H][C@@]12CCCO[C@]1([H])[C@H](OCc1ccncc1)CN2S(=O)(=O)CCC | -9.002%
* CCOC(=O)[C@@H]1[C@@H](O)C(=O)N(C)C12CCN(C(=O)OC)CC2 | -9.474%
* CSc1nnc(CNC(=O)Nc2ccccc2F)n1C | -0.259%
* Cc1ccc(-c2nc(CN3CCN(C(=O)C4CC4)CC3)cs2)o1 | 19.72% & 28.61% & -13.39%
* N#Cc1ccc(CN2CCCC2Cn2cccn2)c(F)c1 (stereo not drawn) | 3.809%
* O=C(O)C(F)(F)F.O=C(O)C(F)(F)F.[H][C@@]12COC[C@]1(CNC(=O)c1ccno1)CN(Cc1cccc(C)n1)C2 | -21.65%
* O=C(COCc1ccccc1Cl)N1CCCC(n2cccn2)C1 (stereo not drawn) | -1.156%
* COCCN1CCN(c2cc(OC)ncn2)Cc2ccc(C)nc21 | 9.114%
* CN1C(=O)C2(CCN(Cc3nccn3C)CC2)c2ccccc21.O=C(O)C(F)(F)F | -3.422%
* O=C(Cc1cn2ccsc2n1)N1CCCC(n2cccn2)C1 (stereo not drawn) | -3.289%
* CC(NC(=O)CN1C=Nc2ccccc2S1(=O)=O)C1CC1 (stereo not drawn) | 11.43%
* Cc1ccc(C(C)C(=O)N2CCCN(Cc3cscn3)CC2)cc1 (stereo not drawn) | 8.162%

For reference, 8 entries once more:

| compound | effect |
|---|---|
| `CCCN(C)C(=O)c1ccc2c(c1)[nH]c(=O)n2CCOCC` | -12.12 |
| `CCc1nc2n(n1)CC(NCc1cnc(-c3ccccc3)nc1)CC2` (stereo not drawn) | 11.84 |
| `CCNC(=O)C1CCN(Cn2nc(-c3ccc(F)cc3)oc2=O)CC1` | 7.612 |
| `O=C(O)C(F)(F)F.[H][C@]12CCC(=O)N(c3ccccc3)[C@@]1([H])CCN2C(=O)c1ccc(C)nc1` | -3.733 |
| `CC1CCc2nn(CCNC(=O)Cc3ccccc3F)c(=O)cc2C1` (stereo not drawn) | -25.04 & -6.135 & -21.75 |
| `Cc1cc(C(N)=O)ccc1NC(=O)c1nc(N2CCCCC2)ncc1Cl` | -5.799 |
| `C/N=C1\c2cc3cc(OC)ccc3n2CCN1Cc1ccccc1.O=C(O)C(F)(F)F` | 13.71 |
| `CCc1n[nH]c(NC(=O)c2ccc(Cl)cn2)c1Br` | 4.563 |

Measurements from “University of Dundee, Small-Polar-MMV Screening Library” (2021), ChEMBL document CHEMBL3988442.